Data published in US8012994B1 (priority 2006, dated 2011).
Where a name gives a salt, the structure may show the parent alone. Read-outs that look alike come from different tables or passages of the source.

Tests used:
[1] = tested on: arachnoidal cyst in the cerebropontine angle
[2] = tested on: neuropathy of the auditory nerve after tuberculose meningitis
[3] = tested on: sensorineural loss of hearing from ototoxic drugs and viral or bacterial infection
[4] = after the second course of treatment

COc1cc2c(cc1OC)C(=O)C(CC1CCN(Cc3ccccc3)CC1)C2 (centres unmarked) [ARICEPT®, donepezil hydrochloride]
headaches [1, 4]: less frequent
slit between the lids when closing the right eye [1, 4]: 2 mm
movements of the mouth angle ([1]; after the third course): restored
palpebral fissure ([1]; after the third course): closing completely
MRI, cyst ([1]; after treatment): insignificant decrease of the cyst
function of CN VII ([1]; follow-up examination in six months): no dysfunction of CN VII was observed
hearing increased by ([1]; person, decrease in hearing by 40 dB, 2.5 mg twice a day for 25 days with CARBAMAZEPINE 200 mg two times a day): 5 dB
effect of treatment ([2]; patient 5-7 years, hearing loss of 95 dB, three courses 1.25 mg two times a day during 20 days): no positive effects
hearing improved by ([2]; two patients 5-7 years after relapse, 3 to 5 courses of twenty days every three months): 5-10 dB
hearing after a cold or flu ([2]; two patients 5-7 years, after the improvement): returned to the initial level
hearing improved by ([2]; two patients 5-7 years, loss 60-70 dB, after 3 courses): 5-10 dB
hearing improved by ([2]; two patients deaf since 6 and 12 months, threshold over 95 dB, 1.25 mg twice a day, after the 8th course): 5-10 dB
hearing improvement ([3]; 10 patients 4-5 years, loss 50-70 dB, 0.625 mg once a day for 20 days, between the third and the fifth courses): 5-15 dB
effect of further courses ([3]; after the fifth course, up to 8 courses): didn't yield any improvement
